Measurements published in the odorant receptor screen of Mainland et al. (2015).
Values joined by “and” are separate entries in the source; they are usually repeats but may differ in a detail not shown here. Equal entries are not always repeated. The list shows a part of the results. Single wells; the ratio to wells without odorant was worked out here, and repeats agree poorly.

Columns and labels:
Test in all cases: odorant receptor activation (CRE luciferase / Renilla) (fold of no-odor wells); higher = more activation
Conditions in all cases: 100 µM
OR6C3 clone 1424 = tested on: OR6C3 clone 1424
OR6C4 I37V clone 1412 = tested on: OR6C4 I37V clone 1412
OR6C6 clone 1426 = tested on: OR6C6 clone 1426
OR6C65 clone 1459 = tested on: OR6C65 clone 1459
OR6C68 A45T clone 1451 = tested on: OR6C68 A45T clone 1451
OR6C70 clone 1427 = tested on: OR6C70 clone 1427
OR6C74 clone 1441 = tested on: OR6C74 clone 1441
OR6C75 clone 1519 = tested on: OR6C75 clone 1519
OR6C76 clone 1414 = tested on: OR6C76 clone 1414
OR6F1 clone 1039 = tested on: OR6F1 clone 1039

Row | SMILES | odorant receptor activation (OR6C3 clone 1424) | odorant receptor activation (OR6C4 I37V clone 1412) | odorant receptor activation (OR6C6 clone 1426) | odorant receptor activation (OR6C65 clone 1459) | odorant receptor activation (OR6C68 A45T clone 1451) | odorant receptor activation (OR6C70 clone 1427) | odorant receptor activation (OR6C74 clone 1441) | odorant receptor activation (OR6C75 clone 1519) | odorant receptor activation (OR6C76 clone 1414) | odorant receptor activation (OR6F1 clone 1039)
1 | CCOc1cc(C=O)ccc1O [ethyl vanillin] | 1.11 and 1.2 | 0.968 and 1.17 | 1.05 and 1.38 | 1.12 and 3.12 and 1.09 | 0.851 | 1.27 and 1.07 | 1.5 and 1.42 | 1.15 and 2.08 and 1.37 | 1.06 | 1.09 and 1.14
2 | CCC(C)=O [2-butanone] | 0.662 | 1.04 | 1.52 | 0.997 | 0.608 | 1.09 | 1.05 | 1.19 | 0.365 | 3.21
3 | CCCCOC(C)=O [butyl acetate] | 0.178 | 0.244 | 0.185 | 0.904 | 1.06 | 0.244 | 0.134 | 1.1 | 0.148 | 0.962
4 | CS [methanethiol] | 0.964 | 0.988 | 1.16 | 1.13 | 0.82 | 1.02 | 1 | 0.82 | 0.688 | 0.784
